Assay results from publication PMC11605454.
Results are given in words; binding and its absence hold for the method and conditions named. In cells and extracts the contact can be indirect. A yes stands for co-enrichment or nearness to the bait. Other partners may have been found.

Chains of the proteins cited; added tags and fusions are not shown. Lines headed by an entry give the natural chain unless they say otherwise; changes in a name come on top.
UniProt Q6ZPK0: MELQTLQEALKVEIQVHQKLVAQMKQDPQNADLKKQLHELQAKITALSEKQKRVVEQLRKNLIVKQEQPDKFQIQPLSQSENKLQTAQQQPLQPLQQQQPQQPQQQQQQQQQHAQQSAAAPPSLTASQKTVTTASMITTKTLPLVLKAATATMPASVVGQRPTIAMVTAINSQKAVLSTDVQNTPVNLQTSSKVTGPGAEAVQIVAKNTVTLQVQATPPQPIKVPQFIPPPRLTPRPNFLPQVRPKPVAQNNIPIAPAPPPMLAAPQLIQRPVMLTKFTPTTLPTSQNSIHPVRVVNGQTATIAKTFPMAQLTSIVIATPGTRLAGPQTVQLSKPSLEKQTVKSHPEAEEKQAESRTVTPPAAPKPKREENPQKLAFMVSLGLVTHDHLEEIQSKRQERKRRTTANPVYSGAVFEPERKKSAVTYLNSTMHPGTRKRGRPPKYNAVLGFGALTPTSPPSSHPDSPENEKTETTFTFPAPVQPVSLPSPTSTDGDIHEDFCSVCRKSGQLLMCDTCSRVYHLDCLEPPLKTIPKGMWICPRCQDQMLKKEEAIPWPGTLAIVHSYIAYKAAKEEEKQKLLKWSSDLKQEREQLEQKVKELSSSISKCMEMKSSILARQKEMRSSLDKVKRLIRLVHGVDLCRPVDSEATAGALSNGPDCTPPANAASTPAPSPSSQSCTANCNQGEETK
UniProt P70288: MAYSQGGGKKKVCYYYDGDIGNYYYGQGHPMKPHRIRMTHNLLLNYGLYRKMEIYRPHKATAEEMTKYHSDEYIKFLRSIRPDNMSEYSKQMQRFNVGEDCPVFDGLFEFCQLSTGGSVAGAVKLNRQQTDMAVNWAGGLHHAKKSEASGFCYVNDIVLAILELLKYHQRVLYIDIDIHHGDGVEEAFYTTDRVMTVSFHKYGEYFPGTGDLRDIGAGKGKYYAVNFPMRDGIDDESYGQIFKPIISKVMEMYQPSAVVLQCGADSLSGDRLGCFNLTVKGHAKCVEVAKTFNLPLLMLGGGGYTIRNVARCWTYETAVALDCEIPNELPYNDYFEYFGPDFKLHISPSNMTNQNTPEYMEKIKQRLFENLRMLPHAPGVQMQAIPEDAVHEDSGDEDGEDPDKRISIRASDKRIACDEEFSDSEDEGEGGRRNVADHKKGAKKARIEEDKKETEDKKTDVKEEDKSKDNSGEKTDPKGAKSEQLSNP

B1: HMG20B (BRAF35), mouse (protein, UniProt Q9Z104 1-317)
chain: MSHGPRQPGAATAPAGGKTPGQHGAFVVAVKQERSEGSRAGEKGPQEEEPVKKRGWPKGKKRKKILPNGPKAPVTGYVRFLNERREQIRTRHPDLPFPEITKMLGAEWSKLQPAEKQRYLDEAEKEKQQYLKELWAYQQSEAYKVCTEKIQENKIKKEDSSSGLMNTLLNGHKGVDCDGFSTFDVPIFTEEFLDQNKAREAELRRLRKMNVAFEEQNAVLQRHTQSMSSARERLEQELALEERRTLALQQQLQAVRQALTASFASLPVPGTGETPTLGTLDFYMARLHGAIERDPAQHERLIARVKEILARVASEHL
B2: CPSF6, mouse (protein, UniProt Q6NVF9 1-551)
chain: MADGVDHIDIYADVGEEFNQEAEYGGHDQIDLYDDVISPSANNGDAPEDRDYMDTLPPTVGDDVGKGAAPNVVYTYTGKRIALYIGNLTWWTTDEDLTEAVHSLGVNDILEIKFFENRANGQSKGFALVGVGSEASSKKLMDLLPKRELHGQSPVVTPCNKQFLSQFEMQSRKTTQSGQMSGEGKAGPPGGGSRAAFPQGGRGRGRFPGAVPGGDRFPGPAGPGGPPPPFPAGQTPPRPPLGPPGPPGPPGPPPPGQVLPPPLAGPPNRGDRPPPPVLFPGQPFGQPPLGPLPPGPPPPVPGYGPPPGPPPPQQGPPPPPGPFPPRPPGPLGPPLTLAPPPHLPGPPPGAPPPAPHVNPAFFPPPTNSGMPTSDSRGPPPTDPYGRPPPYDRGDYGPPGREMDTARTPLSEAEFEEIMNRNRAISSSAISRAVSDASAGDYGSAIETLVTAISLIKQSKVSADDRCKVLISSLQDCLHGIESKSYGSGSRRERSRERDHSRSREKSRRHKSRSRDRHDDYYRERSRERERHRDRDRDRDRERDREREYRHR

Tests used:
[1] = biological target: PHF21A canonical isoform (PHF21A-c), mouse (mouse (endogenous in MEF and in Phf21a Δn/Δn cortex)) (UniProt Q6ZPK0); experiment: affinity purification with mass spectrometry; PHF21A IP (40 ug in-house anti-PHF21A, control rabbit IgG) from nuclear extracts of MEFs and cortical neurons (DIV7); TMT multiplexed MS; n = 3; threshold p < 0.1, FC > 1.5, peptide number >= 6
[2] = biological target: PHF21A neuronal isoform (PHF21A-n), mouse (mouse (endogenous in cortical neurons and P0 cortex)); experiment: as above
[3] = biological target: PHF21A neuronal isoform (PHF21A-n), mouse (mouse (endogenous in cortical neurons and P0 cortex)); experiment: affinity purification with mass spectrometry; PHF21A IP (in-house anti-PHF21A, control rabbit IgG) from nuclear extracts of P0 cortices of Phf21a +/+ and Phf21a Δn/Δn mice; TMT multiplexed MS; n = 3-4 per genotype; threshold padj < 0.01, FC > 2, peptide number >= 6

Molecule	binding [1]	binding [2]	binding [3]
HDAC2, mouse (from UniProt P70288 1-488) (enzyme)	binds		
B1	binds	binds	
B2			binds
